No constants are given. Whether binding was seen depends on the method and setting. In cells and extracts the contact can be indirect. Some binding calls cover weakened binding; strength is not graded here.

Chains of the proteins cited; added tags and fusions are not shown.
UniProt P46937: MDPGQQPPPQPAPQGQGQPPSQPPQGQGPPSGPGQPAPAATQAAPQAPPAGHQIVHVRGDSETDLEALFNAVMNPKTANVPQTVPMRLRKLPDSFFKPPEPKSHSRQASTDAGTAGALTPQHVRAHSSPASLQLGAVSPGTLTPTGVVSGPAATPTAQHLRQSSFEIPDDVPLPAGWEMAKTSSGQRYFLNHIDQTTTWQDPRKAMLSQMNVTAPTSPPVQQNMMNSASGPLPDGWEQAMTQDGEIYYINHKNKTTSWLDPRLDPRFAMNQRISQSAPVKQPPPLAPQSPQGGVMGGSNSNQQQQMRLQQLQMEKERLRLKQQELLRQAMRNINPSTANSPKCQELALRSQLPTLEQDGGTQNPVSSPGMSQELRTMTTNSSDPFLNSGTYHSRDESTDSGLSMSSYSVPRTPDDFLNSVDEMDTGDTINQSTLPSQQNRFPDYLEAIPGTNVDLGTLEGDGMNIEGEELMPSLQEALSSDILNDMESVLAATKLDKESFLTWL

Experiment [1] concerns the target T1, endogenous SRF of 293T cells (human (endogenous in 293T)) (UniProt P11831).
T1 sequence: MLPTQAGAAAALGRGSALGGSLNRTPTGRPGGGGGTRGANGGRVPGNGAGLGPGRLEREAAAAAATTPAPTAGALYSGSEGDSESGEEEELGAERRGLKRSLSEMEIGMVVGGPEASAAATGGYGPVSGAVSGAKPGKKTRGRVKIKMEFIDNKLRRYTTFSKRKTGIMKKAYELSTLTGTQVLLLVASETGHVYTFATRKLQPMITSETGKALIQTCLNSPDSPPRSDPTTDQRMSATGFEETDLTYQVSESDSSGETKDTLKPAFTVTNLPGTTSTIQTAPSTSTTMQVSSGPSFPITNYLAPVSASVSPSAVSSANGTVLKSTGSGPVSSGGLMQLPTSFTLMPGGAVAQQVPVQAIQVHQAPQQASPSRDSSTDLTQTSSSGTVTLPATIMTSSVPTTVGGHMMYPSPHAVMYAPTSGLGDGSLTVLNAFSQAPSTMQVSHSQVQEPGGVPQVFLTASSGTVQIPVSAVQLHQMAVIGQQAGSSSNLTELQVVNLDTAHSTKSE
Put plainly: co-IP; endogenous proteins of 293T cell extract crosslinked with DSP; precipitated with YAP antibody or SRF antibody and protein A/G agarose; benzonase.

The target in experiment [2] is endogenous YAP of 293T cells (human (endogenous in 293T)) (UniProt P46937). The experiment is described as above.

“endogenous YAP of 293T cells (from UniProt P46937 1-504)”: in experiment [1], the binding result is on record as “binds”.

B1: endogenous SRF of 293T cells (protein, UniProt P11831 1-508)
chain: MLPTQAGAAAALGRGSALGGSLNRTPTGRPGGGGGTRGANGGRVPGNGAGLGPGRLEREAAAAAATTPAPTAGALYSGSEGDSESGEEEELGAERRGLKRSLSEMEIGMVVGGPEASAAATGGYGPVSGAVSGAKPGKKTRGRVKIKMEFIDNKLRRYTTFSKRKTGIMKKAYELSTLTGTQVLLLVASETGHVYTFATRKLQPMITSETGKALIQTCLNSPDSPPRSDPTTDQRMSATGFEETDLTYQVSESDSSGETKDTLKPAFTVTNLPGTTSTIQTAPSTSTTMQVSSGPSFPITNYLAPVSASVSPSAVSSANGTVLKSTGSGPVSSGGLMQLPTSFTLMPGGAVAQQVPVQAIQVHQAPQQASPSRDSSTDLTQTSSSGTVTLPATIMTSSVPTTVGGHMMYPSPHAVMYAPTSGLGDGSLTVLNAFSQAPSTMQVSHSQVQEPGGVPQVFLTASSGTVQIPVSAVQLHQMAVIGQQAGSSSNLTELQVVNLDTAHSTKSE
For the molecule B1, the binding result in experiment [2] is given as “binds”.

For the origin of these results see article PMC4703869.
